# Results: article PMC7767469
# Amino acid sequences for entries named in this document (tags omitted).
# UniProt P35222: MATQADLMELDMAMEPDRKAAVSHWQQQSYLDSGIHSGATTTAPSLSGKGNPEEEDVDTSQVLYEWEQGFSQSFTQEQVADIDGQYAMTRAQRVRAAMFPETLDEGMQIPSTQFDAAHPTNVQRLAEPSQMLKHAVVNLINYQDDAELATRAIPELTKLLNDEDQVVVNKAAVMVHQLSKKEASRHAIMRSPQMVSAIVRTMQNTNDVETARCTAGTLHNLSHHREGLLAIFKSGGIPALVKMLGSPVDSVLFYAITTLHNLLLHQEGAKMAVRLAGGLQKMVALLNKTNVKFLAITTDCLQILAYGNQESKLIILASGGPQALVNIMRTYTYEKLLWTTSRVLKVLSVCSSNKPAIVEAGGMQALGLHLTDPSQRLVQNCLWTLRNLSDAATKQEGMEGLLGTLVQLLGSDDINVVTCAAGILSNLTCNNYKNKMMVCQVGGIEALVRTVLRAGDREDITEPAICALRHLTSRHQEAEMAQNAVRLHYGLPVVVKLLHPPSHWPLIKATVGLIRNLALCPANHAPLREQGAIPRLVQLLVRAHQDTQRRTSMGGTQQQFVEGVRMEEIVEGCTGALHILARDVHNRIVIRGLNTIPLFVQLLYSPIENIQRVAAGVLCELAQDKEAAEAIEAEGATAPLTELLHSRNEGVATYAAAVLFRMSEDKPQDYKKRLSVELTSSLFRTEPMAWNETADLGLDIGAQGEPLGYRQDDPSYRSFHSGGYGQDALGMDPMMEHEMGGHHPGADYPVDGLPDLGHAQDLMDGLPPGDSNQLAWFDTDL
# UniProt P98170: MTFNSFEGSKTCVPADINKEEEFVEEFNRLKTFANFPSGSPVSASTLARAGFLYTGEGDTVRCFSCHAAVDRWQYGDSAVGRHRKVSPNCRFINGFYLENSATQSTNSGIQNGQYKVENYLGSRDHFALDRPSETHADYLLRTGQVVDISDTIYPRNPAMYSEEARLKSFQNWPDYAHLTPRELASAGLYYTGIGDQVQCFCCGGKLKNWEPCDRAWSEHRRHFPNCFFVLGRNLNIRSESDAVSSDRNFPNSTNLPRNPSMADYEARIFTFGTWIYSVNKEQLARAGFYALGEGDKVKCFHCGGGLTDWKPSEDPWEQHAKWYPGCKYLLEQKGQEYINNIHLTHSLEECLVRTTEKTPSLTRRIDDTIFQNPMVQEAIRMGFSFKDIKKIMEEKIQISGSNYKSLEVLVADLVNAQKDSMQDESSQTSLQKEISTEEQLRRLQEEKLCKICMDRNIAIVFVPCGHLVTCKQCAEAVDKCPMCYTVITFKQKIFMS
# These are yes or no findings as the source states them, for the method shown. In cells and extracts the contact can be indirect. Some binding calls cover weakened binding; strength is not graded here.
# Target: T1, Chaperonin-containing TCP-1 subunit β (CCT-β) (human (endogenous in MDA-MB-231 and CL1-5)) (UniProt P78371)
# T1 sequence: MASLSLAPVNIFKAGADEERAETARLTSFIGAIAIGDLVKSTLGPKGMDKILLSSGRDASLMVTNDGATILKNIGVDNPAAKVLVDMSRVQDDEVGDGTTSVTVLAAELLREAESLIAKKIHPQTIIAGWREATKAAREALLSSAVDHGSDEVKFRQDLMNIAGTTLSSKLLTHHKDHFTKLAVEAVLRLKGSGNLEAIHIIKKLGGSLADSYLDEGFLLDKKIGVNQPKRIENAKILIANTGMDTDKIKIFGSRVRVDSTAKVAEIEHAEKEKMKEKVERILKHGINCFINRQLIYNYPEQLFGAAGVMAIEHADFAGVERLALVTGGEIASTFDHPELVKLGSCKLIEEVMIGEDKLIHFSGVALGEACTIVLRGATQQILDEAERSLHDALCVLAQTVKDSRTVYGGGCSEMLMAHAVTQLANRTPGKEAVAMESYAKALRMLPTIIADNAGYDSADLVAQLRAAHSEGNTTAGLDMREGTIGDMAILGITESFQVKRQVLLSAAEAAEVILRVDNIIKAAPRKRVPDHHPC
# Assay: co-IP; endogenous proteins in MDA-MB-231 and CL1-5 cell lysates; antibodies against CCT-β, β-catenin, XIAP or control IgG, Protein A-agarose; 25 mM Tris-HCl pH 7.6, 200 mM NaCl, 0.1% NP-40, 6% glycerol, 1 mM EDTA, 0.5 mM DTT, 4 °C overnight; western blot
row,Substance,binding
1,S675-phosphorylated β-catenin (from UniProt P35222 1-781),binds
2,X-linked inhibitor of apoptosis (XIAP) (from UniProt P98170 1-497),binds
3,β-catenin (from UniProt P35222 1-781),binds
